In publication PMC12645938 one finds binding data, which are given here for one molecule.

The chains behind the UniProt entries cited, without tags or fusion partners.
UniProt P05556: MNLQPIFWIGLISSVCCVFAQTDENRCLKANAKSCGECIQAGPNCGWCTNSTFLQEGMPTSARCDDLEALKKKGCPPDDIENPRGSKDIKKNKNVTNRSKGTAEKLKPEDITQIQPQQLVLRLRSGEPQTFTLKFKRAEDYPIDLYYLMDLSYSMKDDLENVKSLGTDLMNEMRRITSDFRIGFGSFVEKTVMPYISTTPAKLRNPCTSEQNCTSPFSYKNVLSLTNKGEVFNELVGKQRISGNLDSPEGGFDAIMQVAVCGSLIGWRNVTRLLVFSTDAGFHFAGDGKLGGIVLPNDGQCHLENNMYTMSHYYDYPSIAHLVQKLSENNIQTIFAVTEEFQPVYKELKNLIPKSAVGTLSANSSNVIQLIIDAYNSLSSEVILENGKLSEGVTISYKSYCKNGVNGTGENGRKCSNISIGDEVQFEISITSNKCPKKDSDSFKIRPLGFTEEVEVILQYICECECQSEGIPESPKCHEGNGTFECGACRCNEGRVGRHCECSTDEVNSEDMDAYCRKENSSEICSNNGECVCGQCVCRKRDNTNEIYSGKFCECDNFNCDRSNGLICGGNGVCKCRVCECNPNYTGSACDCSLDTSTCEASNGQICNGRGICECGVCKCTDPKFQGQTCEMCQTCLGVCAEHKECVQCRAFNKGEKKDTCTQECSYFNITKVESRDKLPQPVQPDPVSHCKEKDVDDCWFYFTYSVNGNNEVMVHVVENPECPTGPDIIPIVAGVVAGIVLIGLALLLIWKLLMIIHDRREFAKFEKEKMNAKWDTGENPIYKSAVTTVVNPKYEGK

Results are given in words; binding and its absence hold for the method and conditions named. In cells and extracts the contact can be indirect. Some entries that bind do so weakly or less than the wild type.

For this experiment, the target named is endogenous ITGβ1 in HEK293T cells (human (endogenous in HEK293T)) (UniProt P05556). Nature of the experiment: co-IP; endogenous proteins of confluent HEK293T cells; magnetic beads with anti-MDA5 or anti-ITGβ1 antibody (Fig. 9B).

B1: endogenous MDA5 in HEK293T cells (protein, UniProt Q9BYX4 1-1025)
chain: MSNGYSTDENFRYLISCFRARVKMYIQVEPVLDYLTFLPAEVKEQIQRTVATSGNMQAVELLLSTLEKGVWHLGWTREFVEALRRTGSPLAARYMNPELTDLPSPSFENAHDEYLQLLNLLQPTLVDKLLVRDVLDKCMEEELLTIEDRNRIAAAENNGNESGVRELLKRIVQKENWFSAFLNVLRQTGNNELVQELTGSDCSESNAEIENLSQVDGPQVEEQLLSTTVQPNLEKEVWGMENNSSESSFADSSVVSESDTSLAEGSVSCLDESLGHNSNMGSDSGTMGSDSDEENVAARASPEPELQLRPYQMEVAQPALEGKNIIICLPTGSGKTRVAVYIAKDHLDKKKKASEPGKVIVLVNKVLLVEQLFRKEFQPFLKKWYRVIGLSGDTQLKISFPEVVKSCDIIISTAQILENSLLNLENGEDAGVQLSDFSLIIIDECHHTNKEAVYNNIMRHYLMQKLKNNRLKKENKPVIPLPQILGLTASPGVGGATKQAKAEEHILKLCANLDAFTIKTVKENLDQLKNQIQEPCKKFAIADATREDPFKEKLLEIMTRIQTYCQMSPMSDFGTQPYEQWAIQMEKKAAKEGNRKERVCAEHLRKYNEALQINDTIRMIDAYTHLETFYNEEKDKKFAVIEDDSDEGGDDEYCDGDEDEDDLKKPLKLDETDRFLMTLFFENNKMLKRLAENPEYENEKLTKLRNTIMEQYTRTEESARGIIFTKTRQSAYALSQWITENEKFAEVGVKAHHLIGAGHSSEFKPMTQNEQKEVISKFRTGKINLLIATTVAEEGLDIKECNIVIRYGLVTNEIAMVQARGRARADESTYVLVAHSGSGVIEHETVNDFREKMMYKAIHCVQNMKPEEYAHKILELQMQSIMEKKMKTKRNIAKHYKNNPSLITFLCKNCSVLACSGEDIHVIEKMHHVNMTPEFKELYIVRENKALQKKCADYQINGEIICKCGQAWGTMMVHKGLDLPCLKIRNFVVVFKNNSTKKQYKKWVELPITFPNLDYSECCLFSDED
Take B1: the binding result is listed as “binds”.
